Data: US20230250160A1 (HOBER BIOTECH, published 2023)
These are yes or no findings as the source states them, for the method shown. Binding calls can cover weak binding; strength is not graded here.

Amino acid sequences for entries named in this document (tags omitted). A change or cut given only in a name is not applied to a line headed by its entry.
UniProt P01308: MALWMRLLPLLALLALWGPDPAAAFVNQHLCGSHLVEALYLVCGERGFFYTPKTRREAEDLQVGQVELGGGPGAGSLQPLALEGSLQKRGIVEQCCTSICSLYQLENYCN

Legend:
[1] = molecular target: T1, Human recombinant Insulin (human, UniProt P01308 25-54; P01308 90-110, limits assumed); test: SPR capture assay, ADAPT captured on HSA, target injected
T1 construct: also called bInsulin

[2] = molecular target: T1, Human recombinant Insulin; test: SPR sensorgrams, FIG. 2A; also after saturation with HSA, FIG. 2B
[3] = molecular target: T1, Human recombinant Insulin; test: SPR; also still binds insulin after incubation with saturating HSA
[4] = molecular target: T1, Human recombinant Insulin; test: size-exclusion chromatography of HSA, ADAPT and insulin mixed 1:1:1
[5] = molecular target: T1, Human recombinant Insulin; test: SPR (Biacore), ADAPT injected alone at 31.25-500 nM over immobilised insulin
[6] = molecular target: T1, Human recombinant Insulin; test: phage display selection after two panning rounds; simultaneous binding of Insulin and albumin
[7] = molecular target: T1, Human recombinant Insulin; test: SPR capture assay, ADAPT variant captured on immobilised HSA, then 500 nM insulin injected
[8] = molecular target: T1, Human recombinant Insulin; test: analytical SEC (Superdex 75 5/150), samples mixed 1:1 or 1:1:1 and injected, overlaid with the single partners
[9] = molecular target: T1, Human recombinant Insulin; test: SPR (Biacore), ADAPT preincubated with a molar excess of HSA, injected at 31.25-500 nM over immobilised insulin
[10] = molecular target: T1, Human recombinant Insulin; test: SPR multi-cycle analysis

Measured: binding

B1: ADAPT variant Insulin_02 (designed binder)
chain: LAIAKAYAQYELSFYGVSDFYRELIVKAKTVEGVEALKLHILAALP
notes: also called INS_02
not listed: [10]
binds: all other assays above

B2: ADAPT variant Insulin_03 (designed binder)
chain: LAVAKAYAKYELAFYGVSDFYNELILKAKTVEGVEALKLHILAALP
notes: also called INS_03
binds: [10] | [1] | [6] | [7]

B3: ADAPT variant Insulin_01 (designed binder)
chain: LVIAKAYAQYELAFYGVSDFYSDLIKKAKTVEGVEALKLHILAALP
notes: also called INS_01
binds: [10] | [1] | [6] | [7]
